These are yes or no findings as the source states them, for the method shown. In cells and extracts the contact can be indirect. Here binding means that the protein was enriched with, or labelled near, the bait; the list need not be complete.
Molecular target: zinc-finger antiviral protein (ZAP, ZC3HAV1), endogenous, immunoprecipitated from Calu-3 lysate (human (endogenous in Calu-3)) (UniProt Q7Z2W4)
Assay: affinity purification with mass spectrometry

Sequences of proteins named here, by UniProt entry; tags and fusion partners are left off.
UniProt Q7Z2W4: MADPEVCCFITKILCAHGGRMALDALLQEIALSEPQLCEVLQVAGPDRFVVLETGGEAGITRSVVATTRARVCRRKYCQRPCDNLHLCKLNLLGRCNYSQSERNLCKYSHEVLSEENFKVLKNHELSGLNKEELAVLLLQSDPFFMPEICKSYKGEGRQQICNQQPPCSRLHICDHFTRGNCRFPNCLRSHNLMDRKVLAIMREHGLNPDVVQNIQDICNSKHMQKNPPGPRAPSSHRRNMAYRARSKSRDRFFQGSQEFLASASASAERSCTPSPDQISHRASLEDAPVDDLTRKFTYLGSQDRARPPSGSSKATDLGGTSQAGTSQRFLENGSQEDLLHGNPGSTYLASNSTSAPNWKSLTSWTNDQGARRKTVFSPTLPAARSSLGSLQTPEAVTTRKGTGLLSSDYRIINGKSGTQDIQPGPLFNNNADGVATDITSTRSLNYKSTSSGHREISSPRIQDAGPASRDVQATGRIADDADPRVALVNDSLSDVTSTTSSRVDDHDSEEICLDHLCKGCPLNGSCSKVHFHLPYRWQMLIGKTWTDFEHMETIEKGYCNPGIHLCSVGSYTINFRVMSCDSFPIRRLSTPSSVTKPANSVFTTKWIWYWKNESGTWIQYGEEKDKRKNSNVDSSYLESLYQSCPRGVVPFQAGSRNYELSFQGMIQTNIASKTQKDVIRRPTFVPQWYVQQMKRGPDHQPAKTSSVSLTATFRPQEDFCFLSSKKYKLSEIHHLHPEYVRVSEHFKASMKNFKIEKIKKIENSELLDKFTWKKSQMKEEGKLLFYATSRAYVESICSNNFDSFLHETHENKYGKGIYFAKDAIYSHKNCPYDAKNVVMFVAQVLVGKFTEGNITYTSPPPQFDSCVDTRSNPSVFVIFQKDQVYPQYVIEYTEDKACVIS
UniProt P05387: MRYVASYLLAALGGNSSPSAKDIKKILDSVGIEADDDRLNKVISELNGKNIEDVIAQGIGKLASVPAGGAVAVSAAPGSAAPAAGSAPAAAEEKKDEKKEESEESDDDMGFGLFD
UniProt P19474: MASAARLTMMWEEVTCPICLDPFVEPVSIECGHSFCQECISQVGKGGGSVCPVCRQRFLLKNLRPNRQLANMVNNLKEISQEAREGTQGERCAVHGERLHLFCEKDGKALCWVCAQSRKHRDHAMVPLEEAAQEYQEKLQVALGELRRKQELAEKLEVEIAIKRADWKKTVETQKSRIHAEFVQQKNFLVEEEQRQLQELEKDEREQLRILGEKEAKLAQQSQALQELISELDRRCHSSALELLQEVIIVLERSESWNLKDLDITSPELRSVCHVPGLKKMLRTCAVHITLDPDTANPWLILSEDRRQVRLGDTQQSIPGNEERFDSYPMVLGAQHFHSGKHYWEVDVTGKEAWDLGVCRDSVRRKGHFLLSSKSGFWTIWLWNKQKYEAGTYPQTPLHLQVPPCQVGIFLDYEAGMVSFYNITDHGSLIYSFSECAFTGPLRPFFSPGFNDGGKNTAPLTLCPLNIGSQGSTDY

| Substance | binding |
| --- | --- |
| RPLP2 (from UniProt P05387 1-115) | binds |
| TRIM21 (from UniProt P19474 1-475) | binds |
| eIF4H (from UniProt Q15056 1-248) | binds |

— article doi:10.1101/2021.05.31.445667
